Several values for one entry are separate records, joined by “and”; a condition that tells them apart may be missing. Identical values can stand only once. The source gives many values for each of these; only a part stands here.
Assays:
[1] = Open-label randomized two-period fed/fasted crossover study, plasma PK; type: in vivo, human; details: fed, 20 mg oral, 3.0 h, Maximum
From the text: The study consisted of two Treatment Periods, Period 1 and Period 2. Each Treatment Period consisted of 7 days, with the dosing of Compound A occurring on Day 1. The two treatment periods were separated by a washout period of 10 days. The subjects were randomized into two groups. During Treatment Period 1, one group received an oral dose of Compound A while fasted and the other group received an oral dose of Compound A when fed. The group which fasted in Treatment Period 1 was fed in Treatment Period 2 and vice versa.
On Day 1 of each Treatment Period, each subject orally received 20 mg of Compound A (4 capsules with 5 mg of Compound A in each capsule).
During the fed period, following an overnight fast of at least 10 hours, a standard high fat, high calorie breakfast was given as per FDA guidance; the breakfast was given 30 minutes prior to the scheduled dosing time, and was completed 10 minutes before dosing. A representative breakfast included 2 slices of buttered toast, 2 fried eggs, 2 strips of bacon, 4 oz. of hash brown potatoes, and 8 oz. of whole milk.
During the fasted period, dosing occurred after an overnight fast of at least 10 hours. No food was allowed for 4 hours post-dose in either the fed or fasted period. Water was allowed as desired except for one hour before and after dosing. […]

[2] = TMS crossover study, pharmacokinetic analysis; type: in vivo, human; details: individual subjects
Protocol: A randomized, double-blind, placebo-controlled, transcranial magnetic stimulation (TMS) crossover study investigated the safety, tolerability, pharmacokinetics (PK), and pharmacodynamics (PD) of single doses of Compound A in healthy right-handed male subjects.
Twenty healthy right-handed male subjects were enrolled and randomized in a blinded fashion to receive a single oral dose of 20 mg Compound A or placebo (1:1 randomization ratio) on Day 1, then were crossed over to receive a single dose of the other treatment on Day 7.
Subjects were screened within 27 days prior to entering the study on Day 1. For Period 1, subjects were admitted to the study unit and dosed on Day 1, and discharged on Day 2. For Period 2, following a washout of 6 days, the same subjects were again admitted to the study unit and dosed on Day 7, and discharged on Day 8. All subjects returned to the clinical unit for an outpatient visit on Day 14, and received a follow-up telephone call on Day 37.
Subjects were dosed in a fed state, but the timing of dosing relative to meals was changed during the study, and varied between a high fat or standard meal eaten either 2 h or 30 minutes prior to dosing, and a high fat or standard meal eaten 1 h or 2.5 h after dosing.
The PK parameters for this study were summarized in two ways. Firstly, PK parameters were calculated where possible using the PK samples collected during each 24 h sampling period for Period 1 and Period 2 separately. Secondly, PK parameters were determined using samples beyond the 24 h sampling period (i.e., from Day 7/8 and/or Day 14). For subjects who received Compound A in the first period, PK samples taken prior to placebo treatment provided additional PK timepoints at >24 h. For subjects who received Compound A in the second period, there was no >24 h PK timepoint until a Day 14 PK sample was added. […] The full PK profile data set consists of the 16 subjects for whom PK samples were taken at >24 h post-dose. For discussion of the PK parameters below, the full PK profile data set was generally used, because it allowed more accurate estimation of PK parameters.
Initially, subjects were dosed 2 hours after a high fat meal with a relatively high fat lunch provided 1 hour after dosing. After blinded review of the PK profiles in the initial 8 subjects, the fat content of the lunch was reduced in an attempt to reduce the time to Tmax, so that the Cmax would fall within the timeframe of TMS measurements. In addition, the timing of the meal relative to dose was changed from 2 hours prior, to 30 minutes prior to dose and subsequently the fat content of the breakfast was reduced. All these changes were made in attempts to provide higher plasma levels during the TMS assessment periods. The timing and type of meal for each subject is specified in Table 13. […] As such the PK data is presented without categorization according to meal content, or relative timing of the meal.

Cc1cc(N2CCc3cc(F)ccc3C2)cc(C)c1NC(=O)CC(C)(C)C [Compound A, N-[4-(6-fluoro-3,4-dihydro-1H-isoquinolin-2-yl)-2,6-dimethylphenyl]-3,3-dimethylbutanamide]
Compound A Concentration [1]: 104 ng/mL | Compound A Plasma Concentration ([2]; Compound A Treatment Period, 20 mg, 2 h, 5 minutes before TMS): 64.2 ng/mL | Compound A Plasma Concentration ([2]; Compound A Treatment Period, 20 mg, 4 h, 5 minutes before TMS): 35.7 ng/mL and 6.08 ng/mL and 76.5 ng/mL | Compound A Plasma Concentration ([2]; Compound A Treatment Period, 20 mg, 6 h, 5 minutes before TMS): 32.8 ng/mL | Compound A Plasma Concentration ([2]; Placebo Treatment Period (carry-over), 2 h): 3.11 ng/mL and 6.05 ng/mL | Compound A Plasma Concentration ([2]; Placebo Treatment Period (carry-over), 4 h): 2.77 ng/mL and 7 ng/mL | Compound A Plasma Concentration ([2]; Placebo Treatment Period (carry-over), 6 h): 2.87 ng/mL
